Counter-ions that a name gives are not always drawn. Some of the results follow. The calls rarely recur for the same compound in another form.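 In K562 cells expressing nanoluciferase-fused kinases, luminescence was recorded at 4 h intervals between 2 and 18 h, normalized as percent of control with DMSO at 100% and a positive control at 0%. A significant (2 sigma) signal drop marks a time point as decreased. The authors' rule for a hit is not shown and takes in more than the number of time points.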
What was measured:
Assay in all cases: kinase-Nluc reporter destabilization hit call (1 = scored as downregulated) (binary); higher = compound decreases kinase abundance
Details in all cases: K562; 2-18 h
ABL1 = ABL1 (UniProt P00519)
AKT1 = AKT1 (UniProt P31749)
ALK = ALK (UniProt Q9UM73)
ARAF = ARAF (UniProt P10398)
AURKA = AURKA (UniProt O14965)
AURKB = AURKB (UniProt Q96GD4)
AURKC = AURKC (UniProt Q9UQB9)
BLK = BLK (UniProt P51451)
BMX = BMX (UniProt P51813)
BRAF = BRAF (UniProt P15056)

Amino acid sequences for entries named in this document (tags omitted). A change or cut given only in a name is not applied to a line headed by its entry.
UniProt P00519, whole entry: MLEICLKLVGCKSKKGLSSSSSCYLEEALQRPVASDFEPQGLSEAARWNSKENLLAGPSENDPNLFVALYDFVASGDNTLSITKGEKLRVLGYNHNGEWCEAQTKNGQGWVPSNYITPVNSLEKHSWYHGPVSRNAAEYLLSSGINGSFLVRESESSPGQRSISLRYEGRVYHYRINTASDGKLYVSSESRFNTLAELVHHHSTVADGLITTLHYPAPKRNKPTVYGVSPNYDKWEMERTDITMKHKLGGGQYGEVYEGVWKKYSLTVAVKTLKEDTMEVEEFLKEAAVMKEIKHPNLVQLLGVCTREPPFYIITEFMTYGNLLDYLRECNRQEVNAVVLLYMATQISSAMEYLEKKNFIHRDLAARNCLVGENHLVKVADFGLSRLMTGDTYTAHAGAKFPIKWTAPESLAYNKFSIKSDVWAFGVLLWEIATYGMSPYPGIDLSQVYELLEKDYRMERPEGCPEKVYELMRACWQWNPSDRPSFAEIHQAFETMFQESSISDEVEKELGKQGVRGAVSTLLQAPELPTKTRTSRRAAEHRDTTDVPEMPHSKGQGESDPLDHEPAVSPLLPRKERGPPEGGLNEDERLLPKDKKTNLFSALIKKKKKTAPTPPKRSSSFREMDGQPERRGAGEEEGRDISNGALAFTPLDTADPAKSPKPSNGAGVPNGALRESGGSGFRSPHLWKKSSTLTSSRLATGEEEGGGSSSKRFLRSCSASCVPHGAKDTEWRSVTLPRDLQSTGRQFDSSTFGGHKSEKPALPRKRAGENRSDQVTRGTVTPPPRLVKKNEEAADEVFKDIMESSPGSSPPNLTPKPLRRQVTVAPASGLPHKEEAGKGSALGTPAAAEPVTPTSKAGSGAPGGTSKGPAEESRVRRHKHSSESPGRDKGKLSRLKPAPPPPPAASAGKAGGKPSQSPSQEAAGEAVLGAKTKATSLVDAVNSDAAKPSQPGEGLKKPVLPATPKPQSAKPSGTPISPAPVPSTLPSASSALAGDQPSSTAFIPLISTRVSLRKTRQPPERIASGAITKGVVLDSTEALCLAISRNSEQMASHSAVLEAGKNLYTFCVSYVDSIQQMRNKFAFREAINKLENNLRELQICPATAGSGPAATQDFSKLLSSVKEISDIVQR
UniProt Q9UM73: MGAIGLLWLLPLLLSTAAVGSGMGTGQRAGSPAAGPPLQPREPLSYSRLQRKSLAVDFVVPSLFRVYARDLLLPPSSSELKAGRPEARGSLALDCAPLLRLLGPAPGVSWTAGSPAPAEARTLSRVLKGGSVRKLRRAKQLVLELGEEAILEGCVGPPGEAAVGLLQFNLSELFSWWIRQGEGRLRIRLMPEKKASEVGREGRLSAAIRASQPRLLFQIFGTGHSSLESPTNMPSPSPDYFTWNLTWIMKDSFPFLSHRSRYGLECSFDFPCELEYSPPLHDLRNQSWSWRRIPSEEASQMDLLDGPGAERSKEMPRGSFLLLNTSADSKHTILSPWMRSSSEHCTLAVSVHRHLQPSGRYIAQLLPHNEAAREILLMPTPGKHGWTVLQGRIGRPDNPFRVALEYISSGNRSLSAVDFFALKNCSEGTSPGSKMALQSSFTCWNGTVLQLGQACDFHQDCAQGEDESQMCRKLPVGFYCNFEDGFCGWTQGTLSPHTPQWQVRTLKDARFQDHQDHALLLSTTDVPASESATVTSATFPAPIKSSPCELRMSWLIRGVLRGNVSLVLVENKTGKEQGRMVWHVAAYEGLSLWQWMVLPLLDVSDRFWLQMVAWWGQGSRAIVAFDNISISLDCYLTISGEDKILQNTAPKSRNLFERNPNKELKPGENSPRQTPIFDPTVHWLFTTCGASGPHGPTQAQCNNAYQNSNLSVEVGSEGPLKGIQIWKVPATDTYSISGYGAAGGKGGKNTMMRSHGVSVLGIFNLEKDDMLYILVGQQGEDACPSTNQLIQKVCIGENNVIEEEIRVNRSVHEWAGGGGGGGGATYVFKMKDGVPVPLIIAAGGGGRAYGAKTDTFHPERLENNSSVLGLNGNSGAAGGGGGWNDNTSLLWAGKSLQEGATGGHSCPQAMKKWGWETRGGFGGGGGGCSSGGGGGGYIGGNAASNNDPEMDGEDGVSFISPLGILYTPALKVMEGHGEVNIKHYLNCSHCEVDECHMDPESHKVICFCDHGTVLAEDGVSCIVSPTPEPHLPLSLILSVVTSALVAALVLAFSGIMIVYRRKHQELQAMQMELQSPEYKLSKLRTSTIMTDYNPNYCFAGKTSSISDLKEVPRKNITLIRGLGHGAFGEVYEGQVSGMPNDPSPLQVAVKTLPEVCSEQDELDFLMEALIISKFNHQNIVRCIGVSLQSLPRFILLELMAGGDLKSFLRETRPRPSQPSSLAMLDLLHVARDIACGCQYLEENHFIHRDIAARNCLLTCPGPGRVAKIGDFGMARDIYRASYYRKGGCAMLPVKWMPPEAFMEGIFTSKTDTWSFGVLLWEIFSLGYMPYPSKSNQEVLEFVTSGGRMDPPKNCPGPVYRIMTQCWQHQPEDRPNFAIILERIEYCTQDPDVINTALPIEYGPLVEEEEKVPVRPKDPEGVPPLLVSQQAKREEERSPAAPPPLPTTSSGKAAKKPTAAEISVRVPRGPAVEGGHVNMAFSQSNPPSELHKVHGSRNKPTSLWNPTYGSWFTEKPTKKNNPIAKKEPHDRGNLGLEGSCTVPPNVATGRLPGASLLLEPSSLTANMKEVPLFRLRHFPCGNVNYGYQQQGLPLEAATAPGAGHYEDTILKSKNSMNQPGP
UniProt P10398: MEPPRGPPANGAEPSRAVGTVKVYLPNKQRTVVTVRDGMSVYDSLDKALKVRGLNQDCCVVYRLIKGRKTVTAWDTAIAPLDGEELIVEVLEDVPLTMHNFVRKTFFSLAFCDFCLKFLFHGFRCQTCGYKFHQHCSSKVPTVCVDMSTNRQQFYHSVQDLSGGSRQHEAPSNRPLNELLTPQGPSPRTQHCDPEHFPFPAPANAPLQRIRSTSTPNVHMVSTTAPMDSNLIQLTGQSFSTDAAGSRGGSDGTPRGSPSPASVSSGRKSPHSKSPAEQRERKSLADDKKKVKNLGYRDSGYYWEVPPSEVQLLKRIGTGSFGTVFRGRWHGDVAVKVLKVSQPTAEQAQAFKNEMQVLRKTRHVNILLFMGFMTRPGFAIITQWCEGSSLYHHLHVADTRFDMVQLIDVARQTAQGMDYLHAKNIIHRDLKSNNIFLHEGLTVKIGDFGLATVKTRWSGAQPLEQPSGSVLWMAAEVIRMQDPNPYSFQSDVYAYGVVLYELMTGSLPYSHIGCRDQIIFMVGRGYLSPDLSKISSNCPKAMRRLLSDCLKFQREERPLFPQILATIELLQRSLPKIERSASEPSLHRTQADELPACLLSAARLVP
UniProt O14965: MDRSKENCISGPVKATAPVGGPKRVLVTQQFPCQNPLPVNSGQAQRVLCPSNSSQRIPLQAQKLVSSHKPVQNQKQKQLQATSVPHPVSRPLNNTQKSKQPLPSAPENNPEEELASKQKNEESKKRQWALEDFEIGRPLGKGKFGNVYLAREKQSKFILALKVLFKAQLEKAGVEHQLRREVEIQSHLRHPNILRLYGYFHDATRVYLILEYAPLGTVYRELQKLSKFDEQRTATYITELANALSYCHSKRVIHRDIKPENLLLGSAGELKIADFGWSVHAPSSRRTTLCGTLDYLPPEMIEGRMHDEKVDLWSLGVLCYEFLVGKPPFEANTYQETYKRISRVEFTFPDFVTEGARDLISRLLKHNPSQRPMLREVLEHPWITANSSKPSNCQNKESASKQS
UniProt Q96GD4, whole entry: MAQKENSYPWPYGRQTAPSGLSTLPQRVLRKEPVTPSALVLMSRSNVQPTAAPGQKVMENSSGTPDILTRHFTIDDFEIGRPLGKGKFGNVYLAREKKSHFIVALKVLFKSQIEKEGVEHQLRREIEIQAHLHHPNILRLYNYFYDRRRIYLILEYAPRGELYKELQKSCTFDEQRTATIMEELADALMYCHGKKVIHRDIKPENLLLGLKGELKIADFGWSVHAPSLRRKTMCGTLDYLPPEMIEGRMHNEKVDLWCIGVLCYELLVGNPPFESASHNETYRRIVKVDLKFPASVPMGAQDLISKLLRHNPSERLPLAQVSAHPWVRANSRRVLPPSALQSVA
UniProt Q9UQB9: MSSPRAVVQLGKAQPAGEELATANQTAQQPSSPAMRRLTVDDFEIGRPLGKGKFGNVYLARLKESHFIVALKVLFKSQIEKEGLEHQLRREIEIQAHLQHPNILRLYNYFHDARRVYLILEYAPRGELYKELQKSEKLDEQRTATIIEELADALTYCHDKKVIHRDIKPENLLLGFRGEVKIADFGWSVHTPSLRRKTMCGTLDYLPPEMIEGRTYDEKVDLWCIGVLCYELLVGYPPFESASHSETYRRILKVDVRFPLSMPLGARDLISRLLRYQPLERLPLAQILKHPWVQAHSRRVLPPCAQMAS
UniProt P51451: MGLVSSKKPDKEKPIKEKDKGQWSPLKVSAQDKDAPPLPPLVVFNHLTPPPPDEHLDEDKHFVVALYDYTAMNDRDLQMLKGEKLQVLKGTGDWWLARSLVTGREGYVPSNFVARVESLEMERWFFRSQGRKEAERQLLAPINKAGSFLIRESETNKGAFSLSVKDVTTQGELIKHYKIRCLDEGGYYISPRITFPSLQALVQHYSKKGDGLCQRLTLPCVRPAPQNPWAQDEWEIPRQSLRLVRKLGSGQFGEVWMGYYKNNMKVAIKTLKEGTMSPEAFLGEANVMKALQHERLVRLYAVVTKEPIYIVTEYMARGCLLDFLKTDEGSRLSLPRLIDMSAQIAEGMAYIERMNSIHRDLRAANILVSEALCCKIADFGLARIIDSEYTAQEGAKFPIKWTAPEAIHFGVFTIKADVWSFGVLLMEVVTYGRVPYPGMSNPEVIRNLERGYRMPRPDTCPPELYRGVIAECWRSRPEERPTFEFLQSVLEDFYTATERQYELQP
UniProt P51813: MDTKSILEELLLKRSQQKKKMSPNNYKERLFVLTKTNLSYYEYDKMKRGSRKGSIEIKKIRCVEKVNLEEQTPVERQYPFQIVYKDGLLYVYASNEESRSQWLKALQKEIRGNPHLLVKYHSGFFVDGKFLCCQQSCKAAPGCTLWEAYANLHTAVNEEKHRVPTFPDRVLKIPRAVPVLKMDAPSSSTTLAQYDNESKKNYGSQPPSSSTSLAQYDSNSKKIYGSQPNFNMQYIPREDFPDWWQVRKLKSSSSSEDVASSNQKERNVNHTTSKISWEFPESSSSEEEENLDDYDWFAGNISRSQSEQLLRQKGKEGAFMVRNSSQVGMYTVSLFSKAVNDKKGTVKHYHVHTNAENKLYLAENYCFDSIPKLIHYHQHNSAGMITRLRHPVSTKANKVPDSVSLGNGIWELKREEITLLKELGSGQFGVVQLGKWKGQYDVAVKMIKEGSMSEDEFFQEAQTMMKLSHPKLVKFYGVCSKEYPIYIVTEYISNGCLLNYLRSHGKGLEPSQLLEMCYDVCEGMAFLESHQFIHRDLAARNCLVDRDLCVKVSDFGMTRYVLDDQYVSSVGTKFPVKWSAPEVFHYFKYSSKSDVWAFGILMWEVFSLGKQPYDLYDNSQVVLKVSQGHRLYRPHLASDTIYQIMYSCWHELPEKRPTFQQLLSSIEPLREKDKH
UniProt P15056, whole entry, looked up: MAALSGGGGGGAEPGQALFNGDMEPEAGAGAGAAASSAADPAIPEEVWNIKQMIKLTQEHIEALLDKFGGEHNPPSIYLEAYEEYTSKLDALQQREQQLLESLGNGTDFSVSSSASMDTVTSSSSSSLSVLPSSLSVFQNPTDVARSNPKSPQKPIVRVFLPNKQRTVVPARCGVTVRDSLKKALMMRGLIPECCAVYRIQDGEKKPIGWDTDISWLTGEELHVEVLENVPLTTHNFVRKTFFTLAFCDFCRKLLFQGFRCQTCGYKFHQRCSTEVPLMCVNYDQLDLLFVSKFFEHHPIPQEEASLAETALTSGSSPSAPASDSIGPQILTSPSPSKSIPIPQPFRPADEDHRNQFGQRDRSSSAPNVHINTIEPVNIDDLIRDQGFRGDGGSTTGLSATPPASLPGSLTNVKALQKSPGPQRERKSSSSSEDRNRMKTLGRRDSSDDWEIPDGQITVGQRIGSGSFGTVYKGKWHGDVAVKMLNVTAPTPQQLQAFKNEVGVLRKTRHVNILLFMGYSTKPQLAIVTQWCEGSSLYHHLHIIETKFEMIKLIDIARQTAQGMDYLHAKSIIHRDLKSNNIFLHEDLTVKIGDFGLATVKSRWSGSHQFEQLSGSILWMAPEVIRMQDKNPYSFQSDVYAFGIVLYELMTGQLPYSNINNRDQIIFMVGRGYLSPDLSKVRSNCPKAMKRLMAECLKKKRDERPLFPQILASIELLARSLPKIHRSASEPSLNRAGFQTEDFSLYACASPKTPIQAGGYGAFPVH

Structure (SMILES) | kinase-Nluc reporter destabilization hit call (ABL1) | kinase-Nluc reporter destabilization hit call (AKT1) | kinase-Nluc reporter destabilization hit call (ALK) | kinase-Nluc reporter destabilization hit call (ARAF) | kinase-Nluc reporter destabilization hit call (AURKA) | kinase-Nluc reporter destabilization hit call (AURKB) | kinase-Nluc reporter destabilization hit call (AURKC) | kinase-Nluc reporter destabilization hit call (BLK) | kinase-Nluc reporter destabilization hit call (BMX) | kinase-Nluc reporter destabilization hit call (BRAF)
Oc1cc(O)cc(/C=C/c2ccc(O)c(O)c2)c1 [Piceatannol] (10 µM) | inactive: 0 | inactive: 0 | inactive: 0 | inactive: 0 | inactive: 0 | inactive: 0 | inactive: 0 | inactive: 0 | inactive: 0 | inactive: 0
Cc1cc(N2CCOCC2)cc2[nH]c(-c3c(NC[C@@H](O)c4cccc(Cl)c4)cc[nH]c3=O)nc12 (10 µM) | inactive: 0 | inactive: 0 | inactive: 0 | inactive: 0 | inactive: 0 | inactive: 0 | inactive: 0 | inactive: 0 | inactive: 0 | inactive: 0
Cn1c(=O)c(Oc2ccc(F)cc2F)cc2cnc(NC3CCOCC3)nc21 [R1487 (Hydrochloride)] (10 µM) | inactive: 0 | inactive: 0 | inactive: 0 | inactive: 0 | inactive: 0 | inactive: 0 | inactive: 0 | inactive: 0 | inactive: 0 | inactive: 0
O=C1c2ccccc2-c2n[nH]c3cccc1c23 (10 µM) | inactive: 0 | inactive: 0 | inactive: 0 | inactive: 0 | inactive: 0 | inactive: 0 | inactive: 0 | inactive: 0 | inactive: 0 | inactive: 0
COc1cc2c(Nc3ccc(NC(=O)c4ccccc4)cc3)ncnc2cc1OCCCN1CCOCC1 (10 µM) | active: 1 | inactive: 0 | inactive: 0 | inactive: 0 | inactive: 0 | inactive: 0 | inactive: 0 | inactive: 0 | inactive: 0 | inactive: 0
CCN1C(=O)N(c2c(F)c(OC)cc(OC)c2F)Cc2cnc3[nH]c(CN4CCOCC4)cc3c21 [Pemigatinib] (10 µM) | inactive: 0 | inactive: 0 | inactive: 0 | inactive: 0 | inactive: 0 | inactive: 0 | inactive: 0 | inactive: 0 | inactive: 0 | inactive: 0
C[C@H](NC(=O)/C(C#N)=C/c1cccc(Br)n1)c1ccccc1 (2.5 µM) | inactive: 0 | inactive: 0 | inactive: 0 | inactive: 0 | inactive: 0 | inactive: 0 | inactive: 0 | inactive: 0 | inactive: 0 | inactive: 0
Cc1cc(CS(=O)(=O)c2ccccc2)cc(OCc2ccc(CN3CCC[C@@H]3CO)cc2)c1 [PF-543 (Citrate)] (10 µM) | inactive: 0 | inactive: 0 | inactive: 0 | inactive: 0 | inactive: 0 | inactive: 0 | inactive: 0 | inactive: 0 | inactive: 0 | inactive: 0
CC(C)n1cnc2c(NCc3cccc(C(F)(F)F)c3)ncnc21 [Longdaysin] (10 µM) | inactive: 0 | inactive: 0 | inactive: 0 | inactive: 0 | inactive: 0 | inactive: 0 | inactive: 0 | inactive: 0 | inactive: 0 | inactive: 0
Nc1nc(OCC2CCCCC2)c2[nH]cnc2n1 (10 µM) | inactive: 0 | inactive: 0 | inactive: 0 | inactive: 0 | inactive: 0 | inactive: 0 | inactive: 0 | inactive: 0 | inactive: 0 | inactive: 0
Cc1c[nH]c(/C=C2\C(=O)Nc3ccccc32)c1CCC(=O)O (10 µM) | inactive: 0 | inactive: 0 | inactive: 0 | inactive: 0 | inactive: 0 | inactive: 0 | inactive: 0 | inactive: 0 | inactive: 0 | inactive: 0
COc1cc(C(=O)NC2CCN(C)CC2)ccc1Nc1ncc2c(n1)N(C1CCCC1)CC(F)(F)C(=O)N2C (10 µM) | inactive: 0 | inactive: 0 | inactive: 0 | inactive: 0 | inactive: 0 | inactive: 0 | inactive: 0 | inactive: 0 | inactive: 0 | inactive: 0
Cc1cc(C)c(/C=C2\C(=O)Nc3ccccc32)[nH]1 [Semaxinib] (10 µM) | inactive: 0 | inactive: 0 | inactive: 0 | inactive: 0 | inactive: 0 | inactive: 0 | inactive: 0 | inactive: 0 | inactive: 0 | inactive: 0
COc1cc2ncnc(Nc3cccc(Cl)c3F)c2cc1OC(=O)N1CCN(C)C[C@H]1C [Zorifertinib] (10 µM) | inactive: 0 | inactive: 0 | inactive: 0 | inactive: 0 | inactive: 0 | inactive: 0 | inactive: 0 | inactive: 0 | inactive: 0 | inactive: 0
Cc1[nH]c(/C=C2\C(=O)Nc3ccc(S(=O)(=O)Cc4c(Cl)cccc4Cl)cc32)c(C)c1C(=O)N1CCC[C@@H]1CN1CCCC1 (2.5 µM) | inactive: 0 | inactive: 0 | inactive: 0 | inactive: 0 | inactive: 0 | inactive: 0 | inactive: 0 | inactive: 0 | inactive: 0 | inactive: 0
CCN1CCN(c2ccc(Nc3cc(N(C)C(=O)Nc4c(Cl)c(OC)cc(OC)c4Cl)ncn3)cc2)CC1 [Infigratinib] (10 µM) | inactive: 0 | inactive: 0 | inactive: 0 | inactive: 0 | inactive: 0 | inactive: 0 | inactive: 0 | inactive: 0 | inactive: 0 | inactive: 0
O=c1c(-c2ccc(O)cc2)coc2cc(O)cc(O)c12 [Genistein] (10 µM) | inactive: 0 | inactive: 0 | inactive: 0 | inactive: 0 | inactive: 0 | inactive: 0 | inactive: 0 | inactive: 0 | inactive: 0 | inactive: 0
CN1CCN(S(=O)(=O)c2ccc(-c3cnc(N)c(C(=O)Nc4cccnc4)n3)cc2)CC1 (10 µM) | inactive: 0 | inactive: 0 | inactive: 0 | inactive: 0 | inactive: 0 | inactive: 0 | inactive: 0 | inactive: 0 | inactive: 0 | inactive: 0
COc1cc(Nc2ncc3c(n2)-c2ccc(Cl)cc2C(c2c(F)cccc2OC)=NC3)ccc1C(=O)O [Alisertib] (2.5 µM) | inactive: 0 | inactive: 0 | inactive: 0 | inactive: 0 | inactive: 0 | inactive: 0 | inactive: 0 | inactive: 0 | inactive: 0 | inactive: 0
CN1CCC(Nc2ncc3ncnc(Nc4ccc(F)c(Cl)c4)c3n2)CC1 [Falnidamol] (10 µM) | inactive: 0 | inactive: 0 | inactive: 0 | inactive: 0 | inactive: 0 | inactive: 0 | inactive: 0 | inactive: 0 | inactive: 0 | inactive: 0
COc1cc(C=C(C#N)C(N)=O)cc(CSc2nc3ccccc3s2)c1O (10 µM) | inactive: 0 | inactive: 0 | inactive: 0 | inactive: 0 | inactive: 0 | inactive: 0 | inactive: 0 | inactive: 0 | inactive: 0 | inactive: 0
Oc1ccc(-c2nc(-c3ccc(F)cc3)c(-c3ccncc3)[nH]2)cc1 (2.5 µM) | inactive: 0 | inactive: 0 | inactive: 0 | inactive: 0 | inactive: 0 | inactive: 0 | inactive: 0 | inactive: 0 | inactive: 0 | inactive: 0
O=C(Nc1ccc(-c2ccnc(Nc3ccc(N4CCOCC4)cc3)n2)cc1)C1CCCN1 (stereo not given) (10 µM) | inactive: 0 | inactive: 0 | inactive: 0 | inactive: 0 | inactive: 0 | inactive: 0 | inactive: 0 | inactive: 0 | inactive: 0 | inactive: 0
COc1cc2ncnc(Nc3cccc(O)c3)c2cc1OC (10 µM) | inactive: 0 | inactive: 0 | inactive: 0 | inactive: 0 | inactive: 0 | inactive: 0 | inactive: 0 | inactive: 0 | inactive: 0 | inactive: 0
CCn1cc(-c2ccnc3[nH]c(-c4cccc(CN(C)C)c4)cc23)c(-c2ccc(NC(=O)N(C)C)cc2)n1 (2.5 µM) | inactive: 0 | inactive: 0 | inactive: 0 | inactive: 0 | inactive: 0 | inactive: 0 | inactive: 0 | inactive: 0 | inactive: 0 | inactive: 0
O=C(Nc1cc(C(F)(F)F)ccc1N1CCN(Cc2ccccn2)CC1)c1ccc(-c2ccncc2)o1 (10 µM) | inactive: 0 | inactive: 0 | inactive: 0 | inactive: 0 | inactive: 0 | inactive: 0 | inactive: 0 | inactive: 0 | inactive: 0 | inactive: 0
COc1ccc2c(C(=O)Nc3ccc(NC(=O)c4nn(C5CCN(C(=O)CC(C)(C)C#N)CC5)c5ccc(F)cc45)cc3Cl)cnn2c1 [Src Inhibitor 3] (2.5 µM) | inactive: 0 | inactive: 0 | inactive: 0 | inactive: 0 | inactive: 0 | inactive: 0 | inactive: 0 | inactive: 0 | inactive: 0 | inactive: 0
O=c1oc2c(C3OCCCO3)c(O)ccc2c2c1CNCC2 (10 µM) | inactive: 0 | inactive: 0 | inactive: 0 | inactive: 0 | inactive: 0 | inactive: 0 | inactive: 0 | inactive: 0 | inactive: 0 | inactive: 0
O=C1Nc2ccccc2/C1=C/c1ccc(F)cc1 (10 µM) | inactive: 0 | inactive: 0 | inactive: 0 | inactive: 0 | inactive: 0 | inactive: 0 | inactive: 0 | inactive: 0 | inactive: 0 | inactive: 0
Cc1c[nH]c2nccc(Oc3c(F)cc(Nc4cc(Cl)nc(N)n4)cc3F)c12 (10 µM) | inactive: 0 | inactive: 0 | inactive: 0 | inactive: 0 | inactive: 0 | inactive: 0 | inactive: 0 | inactive: 0 | inactive: 0 | inactive: 0

Taken from above (2 entries):
Structure (SMILES) | kinase-Nluc reporter destabilization hit call (ABL1) | kinase-Nluc reporter destabilization hit call (AKT1) | kinase-Nluc reporter destabilization hit call (ALK) | kinase-Nluc reporter destabilization hit call (ARAF) | kinase-Nluc reporter destabilization hit call (AURKA) | kinase-Nluc reporter destabilization hit call (AURKB) | kinase-Nluc reporter destabilization hit call (AURKC) | kinase-Nluc reporter destabilization hit call (BLK) | kinase-Nluc reporter destabilization hit call (BMX) | kinase-Nluc reporter destabilization hit call (BRAF)
CC(C)n1cnc2c(NCc3cccc(C(F)(F)F)c3)ncnc21 [Longdaysin] (10 µM) | inactive: 0 | inactive: 0 | inactive: 0 | inactive: 0 | inactive: 0 | inactive: 0 | inactive: 0 | inactive: 0 | inactive: 0 | inactive: 0
Nc1nc(OCC2CCCCC2)c2[nH]cnc2n1 (10 µM) | inactive: 0 | inactive: 0 | inactive: 0 | inactive: 0 | inactive: 0 | inactive: 0 | inactive: 0 | inactive: 0 | inactive: 0 | inactive: 0
